According to PubChem BioAssay AID1259415 (National Center for Advancing Translational Sciences (NCATS), 2018):
Among all 410,000 compounds or so, about 18,000 (4.4%) were called active. Inconclusive results, whose numbers are uncertain, are shown with a selection of clear calls. No stated cut-off is given here; in the data, active means activity change below about -60%; inconclusive means no clear call, values can overlap the other calls; inactive means above about -39%.

Assay: qHTS Assay for inhibitors of the human cytomegalovirus (HCMV)
Conditions: HFF cells, HCMV-luciferase reporter, 72 h; at 57.5 µM; active compounds read low
In short: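 Two-dose cell screen: HFF monolayers treated with compounds and infected with luciferase-expressing HCMV at 1 PFU/cell, 72 h at 37C, then lysed for luciferase measurement.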
On the % scale 0 is the no-effect control and ±100 the full control effect.

SMILES | activity change, negative = inhibition
CCc1c(-c2ccccc2F)ncn1Cc1cccc(-c2ccccc2)c1 | active: -71.5%
NS(=O)(=O)c1cccc(NC(=O)c2cccc(Oc3ccccc3)c2)c1 | inconclusive: -54.6%
CN(C)S(=O)(=O)c1cccc(-c2nn(-c3ccccc3)cc2/C=C2\SC(=S)NC2=O)c1 | active: -82%
CC(=O)c1ccc(NC(=O)Nc2ncn(Cc3cccc(C)c3)n2)cc1 | inactive: 37%
CCCN(CCC)CC(O)Cn1cc(/C=C/C(=O)c2ccc(OCC)cc2)c2ccccc21 (stereo not given) | active: -106%
COc1ccc(OCC(=O)NCCS(=O)(=O)N2CCN(c3cccc(Cl)c3)CC2)cc1 | inactive: -38.6%
c1ccc(-c2csc(CN3CCCCC3)n2)cc1 | inconclusive: -54.7%
Cc1cc(-c2ccc(Br)cc2)n2nc(C)cc2n1 | inactive: -19.7%
COc1ccc(NC(=O)Cc2csc(COc3cccc(C)c3)n2)c(OC)c1 | inactive: 1.6%
O=C(c1ccccc1)c1ccc(Sc2ccc([N+](=O)[O-])cc2)cc1 | inconclusive: -42.8%
Cc1cc(=O)[nH]c(SCC(=O)Nc2ccc3c(c2)CCC3)c1C#N | active: -76.6%
O=C(N/N=C/c1cc([N+](=O)[O-])ccc1O)c1cccc2cc[nH]c12 | active: -80.3%
Cc1ccc(S(=O)(=O)CCC(=O)Nc2nnc(-c3cccs3)o2)cc1 | inactive: -6.75%
Brc1cccc(OCCCCn2cncn2)c1 | inactive: 51.6%
O=C(O)c1cnn(-c2nc(-c3cccc(F)c3)cs2)c1C(F)(F)F | inconclusive: -43.9%
O=C(CSCc1cnn(-c2ccccc2)c1-n1cccc1)Nc1ccc(F)cc1F | inconclusive: -55.3%
CNC(=S)N(Cc1ccc(OC)cc1)C1CC(=O)N(c2ccc(OC)cc2)C1=O (stereo not given) | inconclusive: -53.6%
CCCCN1CC(COCc2ccccc2)Oc2cccc(Oc3ccc(SC)c(C)c3)c2S1(=O)=O (stereo not given) | active: -80%
Cc1ccc(CNC(=O)c2c(-c3ccccc3Cl)noc2C)cc1 | inconclusive: -49.4%
Cc1ccc(Oc2ccc(OCC(=O)Nc3ccncc3)cc2)cc1 | inconclusive: -43.3%
Cc1ccc(-c2ccc(/C=N\NC(=O)c3cc4c(ccc5ccccc54)o3)o2)cc1[N+](=O)[O-] | active: -95%
Cc1cc(/C=C2\NC(=O)NC2=O)c(C)n1-c1cccnc1 | inactive: 15%
Cc1ccc(S(=O)(=O)NCCC(=O)NCCCSc2ccccc2)cc1 | active: -75%
CCCCn1nc2cc(C(=O)NC3CCCc4ccccc43)ccc2c1OCC (stereo not given) | inconclusive: -49.7%
CCn1c(C)c(C)c2cc(C(=O)N3CCc4ccccc4C3)ccc21 | active: -85%

A few values from the results shown:
In activity change, negative = inhibition, CCCCN1CC(COCc2ccccc2)Oc2cccc(Oc3ccc(SC)c(C)c3)c2S1(=O)=O (stereo not given) has the entry active: -80%
In activity change, negative = inhibition, NS(=O)(=O)c1cccc(NC(=O)c2cccc(Oc3ccccc3)c2)c1 has the entry inconclusive: -54.6%
